Values of other authors, collected in patent publication US12379386B2, “Antibodies to 25-hydroxyvitamin D2 and D3 for detecting total 25-hydroxyvitamin D” (Siemens Healthcare Diagnostics Inc., priority 2011, dated 2025).
Some of these results come from one statement about several compounds together. For at least one compound, name, drawing or mass did not settle the structure.

Legend:
[1] = target: T1, vitamin D binding protein (DBP) (Homo sapiens, UniProt P02774); details: cited from earlier work
T1 sequence (P02774 17-474): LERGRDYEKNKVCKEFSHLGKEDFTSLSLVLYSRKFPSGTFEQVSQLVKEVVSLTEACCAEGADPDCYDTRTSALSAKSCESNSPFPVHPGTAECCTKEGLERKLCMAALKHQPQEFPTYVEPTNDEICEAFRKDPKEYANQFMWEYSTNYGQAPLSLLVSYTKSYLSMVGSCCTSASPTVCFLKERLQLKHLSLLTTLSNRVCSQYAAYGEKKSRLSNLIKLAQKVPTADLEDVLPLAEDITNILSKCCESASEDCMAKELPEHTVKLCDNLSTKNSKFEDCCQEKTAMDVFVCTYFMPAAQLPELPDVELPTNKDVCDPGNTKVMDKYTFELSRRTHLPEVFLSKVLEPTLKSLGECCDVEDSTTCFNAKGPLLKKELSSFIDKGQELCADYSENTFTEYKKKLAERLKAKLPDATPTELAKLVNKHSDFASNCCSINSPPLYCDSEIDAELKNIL

[2] = in plasma; majority bound to DBP; cited from earlier work

Q: Which “association affinity to DBP” value [1] does the source give for `C=C1CC[C@H](O)C/C1=C/C=C1\CCC[C@]2(C)[C@@H]([C@H](C)/C=C/[C@H](C)C(C)(C)O)CC[C@@H]12` [25-(OH)-Vit D2, 25-hydroxyvitamin D2] here?
A: The value was ≤ 10^9 M^−1.

Q: What about the free form [2] of the same molecule?
A: The free form was “less than 0.05%”.
